Experimental findings from paper PMC2266781 are described below.

Protein sequences, listed by entry. Tags and fused reporters are not part of them.
UniProt P09874: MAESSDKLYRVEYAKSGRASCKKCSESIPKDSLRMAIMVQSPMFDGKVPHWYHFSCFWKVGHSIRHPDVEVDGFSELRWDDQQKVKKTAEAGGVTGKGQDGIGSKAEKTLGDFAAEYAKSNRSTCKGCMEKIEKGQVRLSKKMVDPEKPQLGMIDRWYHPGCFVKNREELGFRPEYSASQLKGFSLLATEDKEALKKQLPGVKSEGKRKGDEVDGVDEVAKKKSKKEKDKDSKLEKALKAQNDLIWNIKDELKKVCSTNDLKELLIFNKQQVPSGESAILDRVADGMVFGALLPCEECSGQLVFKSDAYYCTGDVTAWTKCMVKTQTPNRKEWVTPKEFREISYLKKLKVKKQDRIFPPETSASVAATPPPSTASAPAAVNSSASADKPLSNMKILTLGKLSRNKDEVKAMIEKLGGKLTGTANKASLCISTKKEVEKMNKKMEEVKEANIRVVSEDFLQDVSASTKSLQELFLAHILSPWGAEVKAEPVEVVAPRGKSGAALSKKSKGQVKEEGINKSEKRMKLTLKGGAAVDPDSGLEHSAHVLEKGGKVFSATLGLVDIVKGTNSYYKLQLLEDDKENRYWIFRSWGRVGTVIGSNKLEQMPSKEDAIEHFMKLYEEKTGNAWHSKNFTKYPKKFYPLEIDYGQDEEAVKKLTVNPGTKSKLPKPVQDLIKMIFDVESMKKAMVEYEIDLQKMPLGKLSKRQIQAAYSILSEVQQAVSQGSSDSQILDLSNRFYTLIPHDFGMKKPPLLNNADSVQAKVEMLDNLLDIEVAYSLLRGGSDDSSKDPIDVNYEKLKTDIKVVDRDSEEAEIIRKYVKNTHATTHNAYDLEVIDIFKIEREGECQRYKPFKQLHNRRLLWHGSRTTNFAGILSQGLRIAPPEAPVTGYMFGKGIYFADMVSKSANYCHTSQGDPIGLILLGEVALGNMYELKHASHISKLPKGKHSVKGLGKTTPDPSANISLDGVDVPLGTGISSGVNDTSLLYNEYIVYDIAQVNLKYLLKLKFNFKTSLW
UniProt P35250: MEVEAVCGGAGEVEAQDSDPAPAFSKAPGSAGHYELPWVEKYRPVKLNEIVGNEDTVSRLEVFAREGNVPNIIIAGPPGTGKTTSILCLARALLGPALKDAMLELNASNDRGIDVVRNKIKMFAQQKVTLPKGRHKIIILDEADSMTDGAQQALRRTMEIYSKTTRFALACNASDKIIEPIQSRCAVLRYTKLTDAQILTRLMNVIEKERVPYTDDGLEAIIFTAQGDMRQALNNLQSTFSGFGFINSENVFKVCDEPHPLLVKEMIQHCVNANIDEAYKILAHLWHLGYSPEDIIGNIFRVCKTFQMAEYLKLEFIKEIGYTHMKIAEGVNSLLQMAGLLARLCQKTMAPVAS
UniProt P40937: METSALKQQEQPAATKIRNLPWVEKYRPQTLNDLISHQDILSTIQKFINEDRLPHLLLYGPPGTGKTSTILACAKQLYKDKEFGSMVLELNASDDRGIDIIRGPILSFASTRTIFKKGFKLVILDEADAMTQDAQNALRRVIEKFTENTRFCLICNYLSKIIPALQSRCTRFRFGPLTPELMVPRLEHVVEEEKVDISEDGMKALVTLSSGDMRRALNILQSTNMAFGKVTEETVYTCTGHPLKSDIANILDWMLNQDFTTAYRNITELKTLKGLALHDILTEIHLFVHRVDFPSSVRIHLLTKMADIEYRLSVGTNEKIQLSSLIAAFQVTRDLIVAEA
UniProt P40938: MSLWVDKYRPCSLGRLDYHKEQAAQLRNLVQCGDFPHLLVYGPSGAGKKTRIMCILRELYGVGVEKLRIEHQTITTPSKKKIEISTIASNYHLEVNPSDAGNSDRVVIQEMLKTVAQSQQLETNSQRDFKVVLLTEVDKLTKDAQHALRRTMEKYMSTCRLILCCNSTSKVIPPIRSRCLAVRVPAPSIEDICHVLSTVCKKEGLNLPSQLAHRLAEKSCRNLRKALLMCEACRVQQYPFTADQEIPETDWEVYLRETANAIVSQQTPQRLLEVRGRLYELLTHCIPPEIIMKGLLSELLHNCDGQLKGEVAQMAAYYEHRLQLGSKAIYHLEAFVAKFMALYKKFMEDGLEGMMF
UniProt P35249: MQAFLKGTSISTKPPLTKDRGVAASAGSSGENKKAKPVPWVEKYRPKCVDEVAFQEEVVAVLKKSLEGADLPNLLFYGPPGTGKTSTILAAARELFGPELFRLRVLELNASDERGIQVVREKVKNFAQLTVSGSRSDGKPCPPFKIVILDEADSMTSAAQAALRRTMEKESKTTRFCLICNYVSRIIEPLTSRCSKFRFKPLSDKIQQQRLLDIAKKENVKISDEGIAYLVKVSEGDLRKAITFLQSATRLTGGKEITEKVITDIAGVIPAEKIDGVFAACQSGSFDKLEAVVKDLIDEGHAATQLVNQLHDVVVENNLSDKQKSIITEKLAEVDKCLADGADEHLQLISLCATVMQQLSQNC

In this test the target is Poly [ADP-ribose] polymerase 1 (human (endogenous in HeLa)) (UniProt P09874). As to the kind of experiment: affinity purification with mass spectrometry; endogenous PARP-1 immunoprecipitated from HeLa cell lysate with monoclonal antibody F1-23 on protein G magnetic beads (normal mouse IgG as control), 2 hours at 4°C; lysis buffer 175 mM KPO4 pH 8.0, 150 mM NaCl, 1% NP-40, 1 mM DTT; eluate separated by SDS-PAGE, in-gel trypsin digest, LC-MS/MS; 5 independent immunoprecipitations.

Results are given in words; binding and its absence hold for the method and conditions named. In cells and extracts the contact can be indirect. These calls come from enrichment with a bait or labelling near it, and not all partners need be listed.

In the case of “Splice Isoform 1 of Activator 1 40 kDa subunit (from UniProt P35250 1-354)”, the binding entry was “binds”.
The same measure for “Activator 1 36 kDa subunit (from UniProt P40937 1-340)”: “binds”; for “Activator 1 38 kDa subunit (from UniProt P40938 1-356)”: “binds”; for “Activator 1 37 kDa subunit (from UniProt P35249 1-363)”: “binds”.

B1: Splice Isoform 1 of Activator 1 140 kDa subunit (protein, UniProt P35251 1-1148)
chain: MDIRKFFGVIPSGKKLVSETVKKNEKTKSDEETLKAKKGIKEIKVNSSRKEDDFKQKQPSKKKRIIYDSDSESEETLQVKNAKKPPEKLPVSSKPGKISRQDPVTYISETDEEDDFMCKKAASKSKENGRSTNSHLGTSNMKKNEENTKTKNKPLSPIKLTPTSVLDYFGTGSVQRSNKKMVASKRKELSQNTDESGLNDEAIAKQLQLDEDAELERQLHEDEEFARTLAMLDEEPKTKKARKDTEAGETFSSVQANLSKAEKHKYPHKVKTAQVSDERKSYSPRKQSKYESSKESQQHSKSSADKIGEVSSPKASSKLAIMKRKEESSYKEIEPVASKRKENAIKLKGETKTPKKTKSSPAKKESVSPEDSEKKRTNYQAYRSYLNREGPKALGSKEIPKGAENCLEGLIFVITGVLESIERDEAKSLIERYGGKVTGNVSKKTNYLVMGRDSGQSKSDKAAALGTKIIDEDGLLNLIRTMPGKKSKYEIAVETEMKKESKLERTPQKNVQGKRKISPSKKESESKKSRPTSKRDSLAKTIKKETDVFWKSLDFKEQVAEETSGDSKARNLADDSSENKVENLLWVDKYKPTSLKTIIGQQGDQSCANKLLRWLRNWQKSSSEDKKHAAKFGKFSGKDDGSSFKAALLSGPPGVGKTTTASLVCQELGYSYVELNASDTRSKSSLKAIVAESLNNTSIKGFYSNGAASSVSTKHALIMDEVDGMAGNEDRGGIQELIGLIKHTKIPIICMCNDRNHPKIRSLVHYCFDLRFQRPRVEQIKGAMMSIAFKEGLKIPPPAMNEIILGANQDIRQVLHNLSMWCARSKALTYDQAKADSHRAKKDIKMGPFDVARKVFAAGEETAHMSLVDKSDLFFHDYSIAPLFVQENYIHVKPVAAGGDMKKHLMLLSRAADSICDGDLVDSQIRSKQNWSLLPAQAIYASVLPGELMRGYMTQFPTFPSWLGKHSSTGKHDRIVQDLALHMSLRTYSSKRTVNMDYLSLLRDALVQPLTSQGVDGVQDVVALMDTYYLMKEDFENIMEISSWGGKPSPFSKLDPKVKAAFTRAYNKEAHLTPYSLQAIKASRHSTSPSLDSEYNEELNEDDSQSDEKDQDAIETDAMIKKKTKSSKPSKPEKDKEPRKGKGKSSKK
With B1, the binding result was “binds”.
